Earlier results, collected in article PMC9321930, “Modelling the Human Blood–Brain Barrier in Huntington Disease” (International Journal of Molecular Sciences, 2022).

Details: Table S4; cited from earlier work

## CC(C)NCC(O)COc1ccc(CC(N)=O)cc1 (stereo not shown) [atenolol]
  Human Kp,uu,CSF: 0.18
